Data taken from PubChem BioAssay AID1159506, deposited by NCATS (2015).

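Genome-wide siRNA knockdown in TC32 Ewing sarcoma cells, comparing luciferase light from an NR0B1-promoter reporter with a CMV-promoter reporter 48 hours after transfection. Each siRNA was applied at 20 nM. A z-score of the log NR0B1-over-CMV signal, less the median of siRNAs with the same seed; more negative means a stronger specific loss of the NR0B1 reporter.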

The strongest results of the screen are mostly left out here. Sequences are the guide (antisense) strand, without overhang.

- UCCAGUUUGUAUCUGUACC against CD52 : seed-corrected z-score 0.8241
- AAUGUCACAAAGGCGCAGG against TRMT2A : seed-corrected z-score 0.139
- UUUGUUAAUAUCCCGCAGG against FETUB : seed-corrected z-score 0.009383
- UCUGAUAUUGGUAGGGUUG against GMPS : seed-corrected z-score 0.4499
- UUUGUGGGAAUCUAAAACC against OTOA : seed-corrected z-score -0.1426
- UUUUGUAACAGCUUGCUUU against ACAT2 : seed-corrected z-score 0.854
- AUGCUUGUAAUGCUGCUGG against LYRM9 : seed-corrected z-score 1.353
- UUAGAAUCACUGUACCUCC against C9 : seed-corrected z-score 0.2232
- UUAGGAGUUCGGCUUUACC against BAHCC1 : seed-corrected z-score -0.2517
- AGAUGAGAAAUGAAGUUGC against CA6 : seed-corrected z-score 0.1923
- AAGACUGACACUUCUUUCC against PLG : seed-corrected z-score -0.6367
- UCAUUAUGCAGAAUGAGGG against RPLP1P7 : seed-corrected z-score -0.1954
- UACCUUUCUAAAGCGGCCC against SNX1 : seed-corrected z-score 0.3993
- UCAGCGAUUUCAAAUUUGC against RPS15AP9 : seed-corrected z-score -0.2752
- UACCGUUGAAUAGUAGGCC against PANK4 : seed-corrected z-score -0.04924
- AAUGAAGGAAGUUGAAGGU against LOC649935 : seed-corrected z-score 1.582
- UUUGCGAUACAAGUGUAUG against FSTL5 : seed-corrected z-score -0.741
- UUCUGUUCAGCGACGAAUG against EIF4G1 : seed-corrected z-score -0.06249
- AUUUGUUAACUUUACCUGC against PROZ : seed-corrected z-score 0.03513
- UAACUUAAUAAGUGAAGGC against LOC727820 : seed-corrected z-score 1.369
- AAUGAGUCAGCAAUGAGUU against OR4C3 : seed-corrected z-score -1.277
- UGAAUUUCCAGGUGCCCGU against CRX : seed-corrected z-score -0.3878
- UGACCUUCAGGCGAAAUCU against FANK1 : seed-corrected z-score 0.58
- UAACCUUUGUGAACGGAAC against RALYL : seed-corrected z-score -0.4643
- AACCGUAUCCGAUAAUCUC against PPFIA2 : seed-corrected z-score -0.1363
- UUAGAACUGAAUCACUUGG against RPL36AP8 : seed-corrected z-score 0.5506
- UAAUGAGCAAGGCAAGAGC against OR51Q1 : seed-corrected z-score -1.504
- UGCAAGAAAACAUAGCCUG against SPACA6 : seed-corrected z-score 0.3075
- UCUACUUUCCUCUGAAUCC against EXOC5 : seed-corrected z-score 0.1725
- UCCUGGACAACCGUGCUCU against DXO : seed-corrected z-score -0.7867
- UGAACUUGCACCGGCAUCU against FXYD1 : seed-corrected z-score 0.002953
- UCACAGUUCAGUUUCCCUA against FBXL15 : seed-corrected z-score 0.7336
- AUACUUGUCACAUUGCUCU against CCRL2 : seed-corrected z-score -1.809
- UGCUCUCAAAGUUUGAGCU against SOX4 : seed-corrected z-score -0.1556
- UUCUGUUGUACAUAUCGGC against TIMM10 : seed-corrected z-score -0.3469
- AACACUACUACUGCUGUGC against CLEC14A : seed-corrected z-score 1.346
- UUUCUUCUAGCAAUCAGUC against TMIGD1 : seed-corrected z-score 0.5409
- UUCCUUUCGACUUAUAGUC against HMGB3 : seed-corrected z-score -0.8114
- UAGGGUCAGGAGACACUUC against GATA2 : seed-corrected z-score 0.3384

The first 4 entries again:

UCCAGUUUGUAUCUGUACC against CD52 read seed-corrected z-score 0.8241.
AAUGUCACAAAGGCGCAGG against TRMT2A read seed-corrected z-score 0.139.
UUUGUUAAUAUCCCGCAGG against FETUB read seed-corrected z-score 0.009383.
UCUGAUAUUGGUAGGGUUG against GMPS read seed-corrected z-score 0.4499.